In the test the test system is Drosophila S2 cl14 SmoIP sensor cells. The experiment in a line: normalized SmoIP GFP fluorescence (untreated unstimulated = 0%, untreated Hh-stimulated = 100%); higher = more Smo activation sensor fluorescence. The settings on record: compound concentration: 15 uM, 24 h.
Setting [1] is: stimulation: Hh conditioned medium (+Hh).
Setting [2] is: stimulation: mock conditioned medium (-Hh).

Each structure is given as a SMILES string. Where a name gives a salt, the structure may show the parent alone. The list shows a part of the results. Baselines shift from plate to plate; read single values as rough.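 A clonal Drosophila S2 line expresses Smoothened bearing circularly permuted GFP in its cytoplasmic tail; Hh-driven phosphorylation opens an inhibitory loop, making it fluoresce. Flow cytometry measured per-cell fluorescence, normalized to Hh-stimulated untreated cells. Hits were inhibitor groups with shared pathway targets that consistently shifted fluorescence, not individual compounds.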

`CCN(CC)C(=O)/C(C#N)=C/c1cc(O)c(O)c([N+](=O)[O-])c1` [entacapone]: the “normalized SmoIP GFP fluorescence” value under setting [1] worked out at 158% and the “normalized SmoIP GFP fluorescence” value under setting [2] turned out to be 12.7%.
Taken in the same sequence, the figures for `CC(C)N(CCCNC(=O)Nc1ccc(C(C)(C)C)cc1)C[C@H]1O[C@@H](n2cc(Br)c3c(N)ncnc32)[C@H](O)[C@@H]1O` were 184% and 56%.
Taken in the same sequence, the figures for `Cc1c(-c2ccccc2)oc2c(C(=O)OCCN3CCCCC3)cccc2c1=O` [flavoxate-hcl] were 124% and 6.67%.
For `N[C@H]1C[C@@H]1c1ccc(-c2cccc(O)c2)cc1`, the “normalized SmoIP GFP fluorescence” value reads like this: under setting [1], 116%; under setting [2], 2.24%.
Taken in the same sequence, the figures for `FC(F)c1nc2ccccc2n1-c1nc(N2CCOCC2)nc(N2CCOCC2)n1` were 45.3% and -30.1%.
The like results for `COc1cccc2cc(-c3nc([C@H]4CC[C@H](C(=O)O)CC4)n4ncnc(N)c34)[nH]c12` were, in that order, 25.9% and -24.8%.
The like results for `CC(C)[C@H](O)C(=O)N[C@@H](C)C(=O)N[C@@H]1C(=O)N(C)CCc2ccccc21` were, in that order, 131% and 11.3%.
Regarding `CC(=O)Nc1cccc2c1c(Sc1ccc(Cl)cc1)c(C)n2CC(=O)O`, the “normalized SmoIP GFP fluorescence” value by setting is: under setting [1], 119%; under setting [2], 0.588%.
Taken in the same sequence, the figures for `CCOc1nc2cccc(C(=O)O)c2n1Cc1ccc(-c2ccccc2-c2noc(=O)[nH]2)cc1` [azilsartan-tak-536] were 120% and -2.71%.
As to `CCN(CC)CCCC(C)Nc1nc(C)cc(Nc2ccc3nc(C)cc(N)c3c2)n1` (stereo not given), the “normalized SmoIP GFP fluorescence” value stood at 162% under setting [1] and 2.5% under setting [2].
Consider `O=C1CCC(N2C(=O)c3ccccc3C2=O)C(=O)N1` (stereo not given) [Thalidomide], for which the “normalized SmoIP GFP fluorescence” value runs as follows: under setting [1], 145%; under setting [2], 4.58%.
The like results for `O=C1CCc2cc(OCCCCc3nnnn3C3CCCCC3)ccc2N1` [Cilostazol] were, in that order, 185% and 26.9%.
With `COc1cc(OC)c2c(=O)[nH]c(-c3cc(C)c(OCCO)c(C)c3)nc2c1`, the “normalized SmoIP GFP fluorescence” value runs as follows: under setting [1], 134%; under setting [2], 9.79%.
Taken in the same sequence, the figures for `NC12CC3CC(CC(C3)C1)C2` [Amantadine-hydrochloride(Symmetrel)] were 154% and -14.3%.
The like results for `COc1ccccc1N1CCN(CCN2C(=O)CC3(CCCC3)CC2=O)CC1` were, in that order, 130% and -14.5%.

Source of the values: the supplement of paper PMC5662767.
